According to PubChem BioAssay AID2685 (National Center for Advancing Translational Sciences (NCATS), 2010):
The campaign covered roughly 320,000 compounds. About 2,100 (0.66%) were called active. This list was built around the results that the source calls inconclusive (neither active nor inactive); the mix of calls is not that of the screen. Calls come from the whole dose curve; as a rule, active = well fitted inhibition curve with a large enough effect in the signal ratio, with a control signal flat (not every such curve was filed as active); inconclusive = small, poorly fitted or top-dose-only effect, or effect the other way, or a change in a side signal; inactive = flat fitted curve, though single readings scatter; the % refers to the signal ratio. Potencies of inconclusive entries are doubtful fits and often do not repeat.

Test: qHTS Assay for Lipid Storage Modulators in Drosophila S3 Cells
Conditions: BODIPY lipid droplet fluorescence, 18-24 h, cells fed with added oleic acid; lipid storage change, negative = inhibition: at 46.1 µM (top of the series) unless noted
Outline: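 Laser-scanning cytometry quantifies lipid droplet accumulation (500–530 nm total intensity; droplet/cell object ratio) in oleic acid-fed (400 uM added) Drosophila S3 cells treated with a concentration series. 20 uM Triacsin C defined 100% inhibition.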
% is set by controls: 0 for no effect and ±100 for the full control effect; potency is the fitted concentration of half-maximal effect.

Row | Structure (SMILES) | lipid storage change, negative = inhibition | Potency
1 | COc1cc(CNC23CC4CC(CC(C4)C2)C3)ccc1OCc1ccccc1 | inconclusive: -8.28% | 
2 | Cc1cccc(NC(=O)CN(CC2CCCO2)C(=O)c2cc3ccccc3o2)c1C (stereo not drawn) | inconclusive: -80.2% | 
3 | Cc1cc(N2CCOCC2)nc2ccc(NC(=O)C3CCC(C)CC3)cc12 (stereo not drawn) |  | inconclusive: 1.84 µM [activator, full curve, poor fit]
4 | Cc1cc(=O)[nH]c(Nc2c(C)n(C)n(-c3ccccc3)c2=O)n1 | inconclusive: 6.09% | 
5 | COc1ccc(C)cc1NC(=O)CSCc1cc(=O)n2c(C)csc2n1 | inconclusive | 
6 | COc1ccc(-c2c3c(=O)n(C)c(=O)n(C)c3cn2-c2ccc(O)cc2)cc1 | inconclusive: 43.5% | 
7 | Cc1ccc[n+](CC2OCc3ccccc3CO2)c1 |  | inconclusive: 29.1 µM [falling, single point]
8 | N#Cc1nc(-c2ccc(OCc3ccc(Cl)cc3)cc2)oc1NCc1cccnc1 | inconclusive: 22.6% | 
9 | N#Cc1ccc(N2CCN(C(=O)c3cccs3)CC2)c(F)c1 | inconclusive: 10.7% | 
10 | Cc1ccc(S(=O)(=O)N2CC(O)CC2C(=O)OCc2nc3sc(C)c(C)c3c(=O)[nH]2)cc1 (stereo not drawn) | inconclusive: 24.2% | 
11 | CCCCOc1ccc(C2(C)NC(=O)N(C)C2=O)cc1 (stereo not drawn) | inconclusive: 18.3% | 
12 | CC(Oc1ccc(Cl)cc1Cl)C(=O)Nc1cccnc1 (stereo not drawn) | inconclusive: -16% | 
13 | Cc1ccc(S(=O)(=O)N(C)C)cc1NC(=O)c1ccc(-n2cncn2)c([N+](=O)[O-])c1 | inconclusive: 12.5% | 
14 | Cc1onc(-c2c(F)cccc2Cl)c1C(=O)c1ccccc1 |  | inconclusive: 29.1 µM [cytotoxic, single point]
15 | Cc1ccc(NC(=O)c2cccc(S(=O)(=O)N(C)c3ccccc3)c2)cc1S(=O)(=O)N1CCOCC1 | inconclusive: -36.4% | 
16 | Cn1c(O)c(C2=c3ccccc3=NC2=O)sc1=Nc1ccc(Cl)cc1 | inconclusive: -11.9% | 
17 | O=c1cc(-c2ccc(Cl)cc2)nc(N2CCN(c3ccccc3)CC2)[nH]1 | inconclusive: 9.45% | 
18 | CC[N+](CC)(CC)CCCCOc1ccc2c(c1)C(=O)c1cc(OCCCC[N+](CC)(CC)CC)ccc1-2 | inconclusive: 26.5% | 
19 | COC(c1ccccc1)c1nnc(CCC(=O)N(C)CCOc2ccccc2)o1 (stereo not drawn) | inconclusive: -13.2% | 
20 | NS(=O)(=O)c1cccc(NC(=S)NC(=O)C23CC4CC(CC(C4)C2)C3)c1 | inconclusive: -1.86% | 
21 | CNc1nc(Cl)c(SC)c(NCc2ccc(F)cc2)n1 | inconclusive: 0.433% | 
22 | COc1ccccc1CCNC(=O)c1nccnc1C(=O)O | inconclusive: -5.84% | 
23 | CCc1ccc2nc(NC(=O)Cn3cnc4ccccc4c3=O)sc2c1 | inconclusive: 14.1% | 
24 | O=C(CN1C(=O)CSC1=O)Nc1ccc(C(=O)O)cc1 | inconclusive: 101% | 
25 | Brc1cccc(CNc2nc3ccccc3n2CCN2CCCCC2)c1 | inconclusive: -2.94% | 
26 | COc1ccc(C)cc1N(C(=O)c1ccco1)C(C(=O)NC1CCCC1)c1ccc(N2CCOCC2)cc1 (stereo not drawn) |  | inconclusive: 0.116 µM [activator, single point]

Row | Structure (SMILES) | lipid storage change, negative = inhibition | Potency
27 | NNC(=S)NC1CCCCC1 | inconclusive: -52.1% [at 0.00295 µM] | 
28 | CCn1c(N2CCN(CC(=O)Nc3cccc(C)c3C)CC2)nc2ccccc21 | inconclusive: 5.71% | 
29 | Cc1ccccc1CCNC(=O)c1cc(C2CC2)nc2c1cnn2C(C)C | inconclusive: 7.47% | 
30 | CCC(C)Oc1cc(-c2ccnc(Nc3cccc(Cl)c3)n2)ccn1 (stereo not drawn) | inconclusive: -7.44% | 
31 | CC1CC(C)CN(S(=O)(=O)c2ccc(NC(=O)C3COc4ccccc4O3)cc2)C1 (stereo not drawn) | inconclusive: -26.5% | 
32 | COc1ccc(NC(=O)CCC(=O)c2cccs2)c(OC)c1 |  | inconclusive: 0.116 µM [falling, single point]
33 | N#C/C(=C(/O)COC(=O)c1ccc(O)cc1)c1nc2ccccc2[nH]1 | inconclusive: -8.38% | 
34 | CC(C)=CCC/C(C)=C/C(=O)O | inconclusive: -33.5% | 
35 | CCC(=O)Nc1ccc(Cl)c(NC(=O)c2cccc(OC)c2)c1 | inconclusive: 19.6% | 
36 | CSc1ccc(CCNC(=O)c2cccc3c2C(=O)N(C2CCCCC2)C3)cc1 |  | inconclusive: 0.0073 µM [falling, full curve, poor fit]
37 | O=C(CN1CCN(C(=O)C2CCCO2)CC1)Nc1ccc(Br)cc1 (stereo not drawn) | inconclusive: 23.8% | 
38 | OCC[C@H]1C[C@H](O)[C@@H](O)[C@@]2(CCCc3ccccc3O2)O1 | inconclusive: 13.9% | 
39 | Cc1noc(C)c1COC(=O)c1cccc(N(C)C)c1 | inconclusive: 48.2% | 
40 | CS(=O)(=O)Nc1ccccc1C(=O)NCCSc1ccccc1 | inconclusive: -4.03% | 
41 | CC(=O)Nc1sc(C)c(C)c1C(=O)OCC(=O)NCc1ccccc1 | inconclusive | 
42 | O=C1CC(/C=C/c2ccccc2)(C(=O)NC2CCCC2)N1c1ccc(S(=O)(=O)N2CCCC2)cc1 (stereo not drawn) | inconclusive: 8.97% | 
43 | Cn1c(=O)oc2cc(S(=O)(=O)Nc3cccc4c3CCCC4)ccc21 | inconclusive: -39.7% | 
44 | C/C(=N\NC(=O)c1cc(-c2cccc(OC(C)C)c2)nc2ccccc12)c1cccnc1 |  | inconclusive: 29.1 µM [activator, single point]
45 | CN(CC(=O)NCc1ccc(F)cc1)CC(=O)Nc1ccc(Cl)c(C(F)(F)F)c1 | inconclusive: -92.7% | 
46 | CCN(CC(=O)NCc1ccc(Cl)cc1)C(=O)/C=C/c1ccc(Cl)c([N+](=O)[O-])c1 | inconclusive: 29.6% | 
47 | COc1ccc([N+](=O)[O-])cc1NC(=S)NC(=O)C(C)(C)C | inconclusive: 18.7% | 
48 | CCOC(=O)c1c(S(=O)(=O)N2CCN(Cc3ccccc3)CC2)c(C)n(C)c1C | inconclusive: -15.9% | 
49 | COc1ccc(COc2cc(-c3cccc(OC)c3)nc3ccc(NC(C)=O)cc23)cc1 |  | inconclusive: 5.17 µM [activator, partial curve]
50 | Cn1c(SCc2cccc(Br)c2)nc2c1c(=O)[nH]c(=O)n2C | inconclusive: 13.3% | 
51 | C=C[C@H](CC(C)C)N(Cc1ccccc1)S(=O)(=O)N(Cc1ccc(OC)cc1)[C@H](C=C)CC(C)C |  | inconclusive: 0.731 µM [activator, partial curve, poor fit]
52 | COC(=O)c1cc(CSc2nc3ccccc3c(=O)n2C)oc1C | inconclusive: -83.5% | 

Row | Structure (SMILES) | lipid storage change, negative = inhibition | Potency
53 | Cc1cccc(CC(=O)N2CCC(n3nccc3NC(=O)C3CC3)CC2)c1 | inconclusive: 159% | 
54 | COc1ccc(NC(=O)C2CCCN(C(=O)Nc3ccc(F)cc3)C2)cc1 (stereo not drawn) |  | inconclusive: 20.6 µM [activator, partial curve]
55 | O=C(N/N=C/c1cnc(N2CCOCC2)s1)c1ccccc1 |  | inconclusive: 29.1 µM [falling, partial curve, poor fit]
56 | Cc1ccccc1Cn1cnc2c(NS(C)(=O)=O)c(C)c(C)cc21 |  | inconclusive: 0.651 µM [activator, partial curve]
57 | O=C(COc1cccc(NC(=O)c2ccccc2)c1)c1ccc(F)cc1 | inconclusive: 29.8% | 
58 | CC(C)N(CCn1c(=S)[nH]c2ccccc2c1=O)C(C)C | inconclusive: -0.997% | 
59 | CC(C)[C@H]1COC(NC2=N[C@@H](C(C)C)CO2)=N1 | inconclusive: 42% | 
60 | CC(=O)c1cnc(Nc2ccccc2)s1 | inconclusive: 56.4% | 
61 | Cc1ccc(S(=O)(=O)N2CCN(C)CC2)c(C)c1 | inconclusive: -37.9% | 
62 | Cc1ccc(CN(CC(=O)N/N=C/c2ccccc2[N+](=O)[O-])S(=O)(=O)c2ccc(C)cc2)cc1 |  | inconclusive: 6.51 µM [activator, partial curve]
63 | Cc1ccc2nc(CCCc3nc4ccc(C)cc4[nH]3)[nH]c2c1 | inconclusive: -14.6% | 
64 | CCOc1ccc([C@@H]2CC=C(C(=O)O)[C@H](c3ccc(F)cc3)N2S(=O)(=O)c2ccc(C)cc2)cc1 |  | inconclusive: 29.1 µM [activator, single point]
65 | COc1ccc(C(=O)CC(c2ccccc2)S(=O)(=O)c2ccc(C)cc2)cc1 (stereo not drawn) |  | inconclusive: 29.1 µM [activator, single point]
66 | O=C(NCc1ccc(F)cc1)C1CCC(CNc2c(N3CCOCC3)c(=O)c2=O)CC1 (stereo not drawn) | inconclusive: 36.6% | 
67 | O=C(NC(=S)Nc1ccc(-c2nc3ncccc3o2)cc1)c1ccccc1F | inconclusive: 5.19% | 
68 | CCCCCC(=O)OC(CN1CCCCCC1)CN1CCCC1=O (stereo not drawn) | inconclusive: -26.7% | 
69 | Cc1ccccc1NC(=O)C(=O)NCc1ccccn1 | inconclusive: 36.2% | 
70 | CCOc1ccc(NC(=O)c2ccc(S(=O)(=O)N3CCOCC3)cc2)cc1 |  | inconclusive: 32.6 µM [falling, single point]
71 | Cc1cc(C)n(CC(O)CN2C(=O)NC(C)(C)C2=O)n1 (stereo not drawn) | inactive | 
72 | COc1cc(-c2nnc(SCC(=O)N(C)C3CCS(=O)(=O)C3)o2)cc(OC)c1OC (stereo not drawn) | inconclusive: 0.451% | 
73 | COc1ccccc1NC(=O)c1ccc2nc(C)sc2c1 |  | inconclusive: 3.66 µM [falling, single point]
74 | O=C(COc1ccccc1Cl)Nc1nnc(S(=O)(=O)N2CCCC2)s1 | inconclusive: -37.9% | 
75 | CCN(CC)CC(=O)Nc1ccc(Oc2ccc(NC(=O)CN(CC)CC)cc2)cc1 | inconclusive: 14.3% | 
76 | CCCn1c(SCC(=O)NCC)nc2sc3c(c2c1=O)CCC3 | inconclusive: 24.6% | 
77 | CC(C)(C)OC(=O)NC1CCN(S(=O)(=O)c2ccc3c(c2)OCCO3)CC1 | inconclusive: 35% | 
78 | CCc1n[nH]c2c1/C(=N\O)CC(C)(C)C2 | inconclusive: 43.3% | 

Molecules from the list above containing a thiophene ring, fused or not (5):
Row | Structure (SMILES) | lipid storage change, negative = inhibition | Potency
9 | N#Cc1ccc(N2CCN(C(=O)c3cccs3)CC2)c(F)c1 | inconclusive: 10.7% | 
10 | Cc1ccc(S(=O)(=O)N2CC(O)CC2C(=O)OCc2nc3sc(C)c(C)c3c(=O)[nH]2)cc1 (stereo not drawn) | inconclusive: 24.2% | 
32 | COc1ccc(NC(=O)CCC(=O)c2cccs2)c(OC)c1 |  | inconclusive: 0.116 µM [falling, single point]
41 | CC(=O)Nc1sc(C)c(C)c1C(=O)OCC(=O)NCc1ccccc1 | inconclusive | 
76 | CCCn1c(SCC(=O)NCC)nc2sc3c(c2c1=O)CCC3 | inconclusive: 24.6% | 
